Among the data in paper PMC12339401 are binding values, retold here.

Amino acid sequences for entries named in this document (tags omitted). A change or cut given only in a name is not applied to a line headed by its entry. Residues count along the entry.
UniProt Q9BXK5, residues 1-465: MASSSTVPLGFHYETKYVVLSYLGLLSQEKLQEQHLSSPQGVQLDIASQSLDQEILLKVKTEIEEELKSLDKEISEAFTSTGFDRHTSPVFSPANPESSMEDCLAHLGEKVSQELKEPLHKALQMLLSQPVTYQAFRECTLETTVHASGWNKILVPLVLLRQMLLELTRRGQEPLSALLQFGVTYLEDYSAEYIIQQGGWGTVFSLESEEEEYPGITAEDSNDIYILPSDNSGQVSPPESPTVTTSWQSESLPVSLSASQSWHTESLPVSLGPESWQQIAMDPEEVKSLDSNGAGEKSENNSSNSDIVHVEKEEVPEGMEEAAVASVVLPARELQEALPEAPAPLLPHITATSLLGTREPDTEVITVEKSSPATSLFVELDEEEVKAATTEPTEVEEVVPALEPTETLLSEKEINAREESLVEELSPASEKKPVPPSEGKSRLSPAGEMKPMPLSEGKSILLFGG
UniProt Q14318, residues 1-391: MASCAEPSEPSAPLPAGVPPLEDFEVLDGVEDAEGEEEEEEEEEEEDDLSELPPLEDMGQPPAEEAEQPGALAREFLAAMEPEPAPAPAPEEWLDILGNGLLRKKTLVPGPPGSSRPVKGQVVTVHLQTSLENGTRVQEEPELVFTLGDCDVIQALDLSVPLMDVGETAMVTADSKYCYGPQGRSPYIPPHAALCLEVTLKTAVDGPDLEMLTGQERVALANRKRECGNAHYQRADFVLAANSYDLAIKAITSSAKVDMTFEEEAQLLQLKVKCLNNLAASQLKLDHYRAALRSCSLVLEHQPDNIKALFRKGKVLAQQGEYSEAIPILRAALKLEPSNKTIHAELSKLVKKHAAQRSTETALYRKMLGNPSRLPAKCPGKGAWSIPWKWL
UniProt Q86VR2, residues 250-466: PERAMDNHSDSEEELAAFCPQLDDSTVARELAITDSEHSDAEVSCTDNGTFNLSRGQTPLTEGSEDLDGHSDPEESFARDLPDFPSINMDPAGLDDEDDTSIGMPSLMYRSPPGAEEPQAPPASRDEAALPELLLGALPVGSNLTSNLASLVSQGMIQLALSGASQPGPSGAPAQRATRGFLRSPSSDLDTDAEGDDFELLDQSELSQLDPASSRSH
UniProt Q9Y6I9, residues 28-313: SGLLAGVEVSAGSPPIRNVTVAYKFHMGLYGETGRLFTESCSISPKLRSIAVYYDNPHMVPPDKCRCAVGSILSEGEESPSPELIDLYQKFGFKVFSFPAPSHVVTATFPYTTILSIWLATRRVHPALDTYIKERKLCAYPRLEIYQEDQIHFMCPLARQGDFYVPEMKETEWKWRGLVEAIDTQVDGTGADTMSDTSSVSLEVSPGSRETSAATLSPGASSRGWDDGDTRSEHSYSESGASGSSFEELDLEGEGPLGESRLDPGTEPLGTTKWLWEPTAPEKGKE
UniProt O60238, residues 1-182: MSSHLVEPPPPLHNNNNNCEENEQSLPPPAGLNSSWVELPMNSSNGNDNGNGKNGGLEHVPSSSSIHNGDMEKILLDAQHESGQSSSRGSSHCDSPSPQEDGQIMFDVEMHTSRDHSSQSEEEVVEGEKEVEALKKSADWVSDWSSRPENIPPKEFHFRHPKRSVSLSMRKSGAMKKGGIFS

Positions count from the first letter of the chain named. Results are given in words; binding and its absence hold for the method and conditions named. For part of these data: A result given as binding can be weak or reduced; the word gives no strength. For part of these data: Sequences can lack the tags named with a protein.

The target in experiment [1] is T1, CCPG1 (residues 1–212)-GST (human) (UniProt Q9ULG6).
T1 sequence: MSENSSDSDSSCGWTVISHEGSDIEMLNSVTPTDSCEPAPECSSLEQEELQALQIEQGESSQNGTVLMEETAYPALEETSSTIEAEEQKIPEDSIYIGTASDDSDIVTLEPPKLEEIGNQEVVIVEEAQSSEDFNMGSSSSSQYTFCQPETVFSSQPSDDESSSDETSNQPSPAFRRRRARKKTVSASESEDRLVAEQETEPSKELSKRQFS
The experiment can be described thus: microscopy-based bead assay; GST-tagged bait on Glutathione Sepharose 4B beads, GFP- or mCherry-tagged prey in solution, confocal imaging; both purified.

For experiment [2], the target named is BCL2L13(1–465)-GST (human) (UniProt Q9BXK5). Described as above.
In experiment [3] the target is BCL2L13-GST with mutated LIR/FIR motifs (human) (UniProt Q9BXK5). The description is as above.
In experiment [4] the target is FKBP8 (residues 1–391)-GST (human) (UniProt Q14318). Described as above.
In experiment [5] the target is T2, FUNDC1 Y18A/L21A (ΔLIR)-GST (human) (UniProt Q8IVP5).
T2 sequence: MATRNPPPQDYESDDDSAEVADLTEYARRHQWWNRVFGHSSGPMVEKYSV
Described as above.

For experiment [6], the target named is T3, FUNDC1(1–50)-GST (human) (UniProt Q8IVP5).
T3 sequence: T2 sequence with A18Y, A21L
The description is as above.

Experiment [7] has as its target GST-FAM134C (residues 250–466) (human) (UniProt Q86VR2). The description is as above.
Experiment [8] concerns the target GST-TEX264 (residues 28–313) (human) (UniProt Q9Y6I9). The description is as above.
Experiment [9] addresses NIX(1–182)-GST (human) (UniProt O60238). The description is as above.
The target in experiment [10] is BCL2L13(1–465)-GST (human) (UniProt Q9BXK5). The experiment is described as follows: microscopy-based bead assay; GST-tagged cargo receptors on beads, GFP-tagged FIP200-CTR or full-length FIP200 in solution, in the presence of lambda protein phosphatase; both purified.
For experiment [11], the target named is T3, FUNDC1(1–50)-GST (human). The description is as above.
The target in experiment [12] is NIX(1–182)-GST (human) (UniProt O60238). Described as above.
Experiment [13] concerns the target FKBP8 (residues 1–391)-GST (human) (UniProt Q14318). The experiment can be described thus: microscopy-based bead assay; agarose beads coated with GST-tagged TEX264 or FKBP8, incubated with GFP-tagged FIP200 C-terminal region and mCherry-tagged WIPI2d together; both purified.
In experiment [14] the target is GST-TEX264 (residues 28–313) (human) (UniProt Q9Y6I9). The description is as above.
In experiment [15] the target is BCL2L13(1–465)-GST (human) (UniProt Q9BXK5). The experiment can be described thus: microscopy-based bead assay; GST-tagged cargo receptors on beads, GFP-tagged FIP200-CTR or full-length FIP200 in solution, with the kinases TBK1, MBP-ULK1, CK2 or Src (Y530F) and ATP/MgCl2; both purified.
For experiment [16], the target named is T3, FUNDC1(1–50)-GST (human). Described as above.
The target in experiment [17] is NIX(1–182)-GST (human) (UniProt O60238). Described as above.

mCherry–WIPI2d: in experiment [1], the binding result is “no binding”.
As to “GFP-FIP200 C-terminal region (CTR), residues 1429–1591 (from UniProt Q8TDY2-2) (domain or fragment)”, the binding result in [2] is on record as “binds”; in experiment [3] it was “no binding”; in [1], “binds”; in experiment [4], “binds”; in experiment [5] it was “no binding”; in [6], “binds”. Further, the binding entry was “binds” in experiment [7]; “binds” in [8]; “no binding” in experiment [9]; “binds” in [10]; “binds” in experiment [11]; “no binding” in experiment [12]. Also, the binding entry in experiment [13] is reported as “binds”; in experiment [14], “binds”; in experiment [15], “binds”; in experiment [16], “binds”; in [17], “no binding”.
